Experimental data taken from paper doi:10.1101/2022.08.31.505729.

By UniProt entry, the sequences of proteins in these tests, tags left out. Where a name states a change or a piece, a line headed by the entry shows the natural chain unless it says otherwise.
UniProt Q8RX71: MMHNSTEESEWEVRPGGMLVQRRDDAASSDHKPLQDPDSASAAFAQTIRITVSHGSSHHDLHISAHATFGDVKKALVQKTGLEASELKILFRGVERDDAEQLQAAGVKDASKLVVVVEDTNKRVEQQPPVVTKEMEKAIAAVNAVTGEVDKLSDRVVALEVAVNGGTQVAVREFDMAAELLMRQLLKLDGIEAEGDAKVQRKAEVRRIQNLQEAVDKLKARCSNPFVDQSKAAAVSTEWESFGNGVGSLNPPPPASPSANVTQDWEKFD
UniProt Q42374: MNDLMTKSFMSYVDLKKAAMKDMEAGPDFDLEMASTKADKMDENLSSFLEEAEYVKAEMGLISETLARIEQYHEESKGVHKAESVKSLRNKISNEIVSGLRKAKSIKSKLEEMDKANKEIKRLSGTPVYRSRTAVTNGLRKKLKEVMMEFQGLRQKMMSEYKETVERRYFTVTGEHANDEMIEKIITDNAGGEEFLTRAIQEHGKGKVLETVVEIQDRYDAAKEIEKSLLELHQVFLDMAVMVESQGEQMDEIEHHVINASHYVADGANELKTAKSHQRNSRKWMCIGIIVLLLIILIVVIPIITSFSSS
UniProt F4J8D3: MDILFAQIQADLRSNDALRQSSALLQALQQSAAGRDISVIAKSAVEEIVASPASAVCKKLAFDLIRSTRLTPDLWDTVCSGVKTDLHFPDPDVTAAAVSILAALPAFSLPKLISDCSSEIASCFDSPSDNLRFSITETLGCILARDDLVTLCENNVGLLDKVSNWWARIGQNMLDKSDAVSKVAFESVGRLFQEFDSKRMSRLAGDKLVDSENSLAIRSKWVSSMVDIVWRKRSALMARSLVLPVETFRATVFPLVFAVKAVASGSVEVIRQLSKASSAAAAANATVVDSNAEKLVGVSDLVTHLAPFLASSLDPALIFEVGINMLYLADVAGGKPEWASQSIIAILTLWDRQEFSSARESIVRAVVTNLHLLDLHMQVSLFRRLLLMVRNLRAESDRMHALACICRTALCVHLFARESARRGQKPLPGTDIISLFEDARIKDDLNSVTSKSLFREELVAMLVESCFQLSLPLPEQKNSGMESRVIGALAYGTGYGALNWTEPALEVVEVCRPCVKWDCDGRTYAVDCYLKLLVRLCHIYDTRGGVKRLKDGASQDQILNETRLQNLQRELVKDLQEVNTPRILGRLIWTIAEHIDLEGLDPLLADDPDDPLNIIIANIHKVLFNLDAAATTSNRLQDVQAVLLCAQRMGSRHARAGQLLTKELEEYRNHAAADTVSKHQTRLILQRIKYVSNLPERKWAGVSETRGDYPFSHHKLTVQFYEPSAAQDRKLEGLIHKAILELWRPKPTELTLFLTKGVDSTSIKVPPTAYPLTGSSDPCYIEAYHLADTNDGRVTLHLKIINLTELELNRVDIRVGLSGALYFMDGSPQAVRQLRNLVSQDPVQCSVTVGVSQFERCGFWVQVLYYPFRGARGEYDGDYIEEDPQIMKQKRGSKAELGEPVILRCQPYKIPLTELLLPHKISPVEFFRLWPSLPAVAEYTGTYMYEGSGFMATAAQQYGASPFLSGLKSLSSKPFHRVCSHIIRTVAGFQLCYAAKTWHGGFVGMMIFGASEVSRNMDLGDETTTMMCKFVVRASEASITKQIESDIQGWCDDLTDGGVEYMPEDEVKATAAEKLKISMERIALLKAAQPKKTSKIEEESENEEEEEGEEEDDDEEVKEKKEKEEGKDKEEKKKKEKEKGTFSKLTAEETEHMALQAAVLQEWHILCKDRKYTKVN
UniProt Q84WL9: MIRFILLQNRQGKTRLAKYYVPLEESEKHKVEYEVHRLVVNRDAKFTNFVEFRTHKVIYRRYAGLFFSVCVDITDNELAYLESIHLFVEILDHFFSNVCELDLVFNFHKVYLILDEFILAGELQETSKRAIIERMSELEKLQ

Assays:
[1] = biological target: P34 (rBiFC fusion) (Arabidopsis thaliana) (UniProt F4JXN0); test: split reporter
[2] = biological target: T1, AP5M (partner of AP5B-RFP in the tobacco Co-IP) (Arabidopsis thaliana) (UniProt Q8W0Z6); test: co-IP
T1 sequence: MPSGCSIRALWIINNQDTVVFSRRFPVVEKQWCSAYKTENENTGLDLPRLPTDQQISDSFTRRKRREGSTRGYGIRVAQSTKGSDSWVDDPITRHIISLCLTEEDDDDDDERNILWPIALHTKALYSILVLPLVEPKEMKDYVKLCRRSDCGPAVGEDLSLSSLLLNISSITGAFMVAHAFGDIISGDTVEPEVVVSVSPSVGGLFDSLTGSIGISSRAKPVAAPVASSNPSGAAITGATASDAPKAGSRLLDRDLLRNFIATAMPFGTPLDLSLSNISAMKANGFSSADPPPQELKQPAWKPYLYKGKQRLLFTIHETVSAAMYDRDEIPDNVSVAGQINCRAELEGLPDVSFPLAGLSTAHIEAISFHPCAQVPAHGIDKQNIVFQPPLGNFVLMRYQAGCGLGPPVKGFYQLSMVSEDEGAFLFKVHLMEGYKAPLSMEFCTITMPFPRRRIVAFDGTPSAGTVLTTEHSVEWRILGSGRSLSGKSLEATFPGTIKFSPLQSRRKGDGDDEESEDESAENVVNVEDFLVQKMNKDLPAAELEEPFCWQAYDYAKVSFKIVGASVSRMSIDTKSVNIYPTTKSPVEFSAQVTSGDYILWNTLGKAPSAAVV

[3] = biological target: T2, nYFP-AP2M (Arabidopsis thaliana) (UniProt O23140); test: split reporter
T2 sequence: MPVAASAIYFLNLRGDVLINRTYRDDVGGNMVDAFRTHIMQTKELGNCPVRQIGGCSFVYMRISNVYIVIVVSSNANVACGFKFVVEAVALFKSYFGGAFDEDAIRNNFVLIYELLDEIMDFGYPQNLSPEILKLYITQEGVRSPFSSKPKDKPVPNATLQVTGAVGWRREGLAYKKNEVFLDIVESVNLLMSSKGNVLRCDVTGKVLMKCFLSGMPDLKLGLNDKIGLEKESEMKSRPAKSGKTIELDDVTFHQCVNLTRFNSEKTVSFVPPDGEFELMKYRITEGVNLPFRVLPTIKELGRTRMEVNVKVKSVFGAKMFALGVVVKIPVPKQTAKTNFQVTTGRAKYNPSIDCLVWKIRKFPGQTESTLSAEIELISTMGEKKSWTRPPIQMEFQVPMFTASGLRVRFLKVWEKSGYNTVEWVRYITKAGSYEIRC

[4] = biological target: T3, AP3B-GFP (Arabidopsis thaliana) (UniProt Q9M2T1); test: co-IP
T3 sequence: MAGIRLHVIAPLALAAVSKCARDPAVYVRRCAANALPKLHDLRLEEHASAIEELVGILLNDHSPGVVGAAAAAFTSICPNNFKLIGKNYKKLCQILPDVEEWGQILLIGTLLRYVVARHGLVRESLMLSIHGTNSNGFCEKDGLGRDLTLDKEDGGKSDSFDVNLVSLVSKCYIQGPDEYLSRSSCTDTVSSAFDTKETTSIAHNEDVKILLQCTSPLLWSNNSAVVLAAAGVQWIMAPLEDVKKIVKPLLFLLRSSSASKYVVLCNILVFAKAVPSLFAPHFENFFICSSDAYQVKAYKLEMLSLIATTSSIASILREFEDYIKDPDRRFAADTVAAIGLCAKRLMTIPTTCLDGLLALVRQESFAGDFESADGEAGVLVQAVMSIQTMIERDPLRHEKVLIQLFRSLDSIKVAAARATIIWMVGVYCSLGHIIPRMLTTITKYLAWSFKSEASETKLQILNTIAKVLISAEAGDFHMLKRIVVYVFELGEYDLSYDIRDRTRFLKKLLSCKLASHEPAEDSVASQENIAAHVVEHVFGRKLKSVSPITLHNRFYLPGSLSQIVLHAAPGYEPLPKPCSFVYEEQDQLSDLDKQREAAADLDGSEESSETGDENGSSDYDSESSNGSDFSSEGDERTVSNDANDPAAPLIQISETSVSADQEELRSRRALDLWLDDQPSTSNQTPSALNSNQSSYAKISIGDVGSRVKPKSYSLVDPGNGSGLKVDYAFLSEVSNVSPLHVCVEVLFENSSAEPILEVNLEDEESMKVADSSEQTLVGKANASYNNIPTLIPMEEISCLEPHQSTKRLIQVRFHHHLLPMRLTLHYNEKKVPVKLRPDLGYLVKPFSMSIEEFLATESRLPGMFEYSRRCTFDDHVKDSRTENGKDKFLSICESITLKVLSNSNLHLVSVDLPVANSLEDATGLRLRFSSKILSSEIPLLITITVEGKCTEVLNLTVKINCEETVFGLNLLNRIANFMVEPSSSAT

[5] = biological target: P34-GFP (Arabidopsis thaliana) (UniProt F4JXN0); test: co-IP
[6] = biological target: BAG4-GFP (Arabidopsis thaliana) (UniProt Q8RX71); test: co-IP
[7] = biological target: T4, AP5M-cYFP (Arabidopsis thaliana) (UniProt Q8W0Z6); test: split reporter
T4 sequence: T1 sequence

[8] = biological target: AP5B (partner of AP5M-RFP in the tobacco Co-IP) (Arabidopsis thaliana); test: co-IP
[9] = biological target: SPG15 (tobacco Co-IP) (Arabidopsis thaliana); test: co-IP
[10] = biological target: SPG11 (tobacco Co-IP) (Arabidopsis thaliana); test: co-IP
[11] = biological target: AP5B-cYFP (Arabidopsis thaliana); test: split reporter
[12] = biological target: AAK1-cYFP (Arabidopsis thaliana); test: split reporter

Molecule: BAG4 (rBiFC fusion) (from UniProt Q8RX71 1-269)
- binding [1]: binds

Molecule: AP5B-RFP (Arabidopsis thaliana)
- binding [2]: binds

Molecule: KNOLLE (rBiFC fusion) (from UniProt Q42374)
- binding [3]: binds

Molecule: P34-mCherry (Arabidopsis thaliana)
- binding [4]: no binding

Molecule: TPLATE (TPC subunit detected with α-TPLATE) (from UniProt F4J8D3 1-1176)
- binding [5]: no binding

Molecule: AP2S (AP-2 subunit detected with α-AP2S) (from UniProt Q84WL9)
- binding [6]: binds
- binding [5]: binds

Molecule: AP5Z-nYFP (Arabidopsis thaliana)
- binding [7]: binds

B1: AP5M-RFP (protein, UniProt Q8W0Z6 1-613)
chain: T1 sequence
- binding [8]: binds
- binding [9]: binds
- binding [10]: binds

B2: AP5M-nYFP (protein, UniProt Q8W0Z6 1-613)
chain: T1 sequence
- binding [11]: binds

B3: nYFP-AP2M (protein, UniProt O23140 1-438)
chain: T2 sequence
- binding [12]: binds

These are yes or no findings as the source states them, for the method shown. Binding seen in cells or lysates may run through a third protein. For some of these results: A result given as binding can be weak or reduced; the word gives no strength. For some of these results: Where a sequence is shown, tags or fusion partners need not be part of it.
